Literature values, collected in patent US12365928B2, “Scalable biosynthesis of the seaweed neurochemical kainic acid” (The Regents of the University of California, priority 2018, dated 2025).
At least one compound was matched to its structure with a doubt left.

Test system: ionotropic glutamate receptor (iGluR)
Details: literature statement; cited from earlier work

## C/C(=C/C=C/[C@@H](C)C(=O)O)[C@H]1CN[C@H](C(=O)O)[C@H]1CC(=O)O [domoic acid]
  iGluR bioactivity: iGluR agonistic bioactivity
